US20060057679A1
Results are given in words; binding and its absence hold for the method and conditions named. Some results given as binding are weak or reduced against the parent protein; the word gives no strength.

Protein sequences, listed by entry. Tags and fused reporters are not part of them. Lines headed by an entry give the natural chain unless they say otherwise; changes in a name come on top. Residues count along the entry.
UniProt Q15109, residues 23-344: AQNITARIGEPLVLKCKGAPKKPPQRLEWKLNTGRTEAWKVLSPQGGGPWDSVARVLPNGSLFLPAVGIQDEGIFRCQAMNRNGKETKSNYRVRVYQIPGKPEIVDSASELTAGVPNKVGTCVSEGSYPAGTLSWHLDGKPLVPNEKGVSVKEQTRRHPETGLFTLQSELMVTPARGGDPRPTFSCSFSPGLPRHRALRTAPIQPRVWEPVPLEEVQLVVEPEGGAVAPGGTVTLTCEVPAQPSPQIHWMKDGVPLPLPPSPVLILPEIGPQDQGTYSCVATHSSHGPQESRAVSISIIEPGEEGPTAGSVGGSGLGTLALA

Assays:
[1] = target: T1, HMGB1 A box (amino acids 9-85 of the HMGB1 sequence) (human); assay: ELISA, coated A box peptide
T1 sequence (peptide): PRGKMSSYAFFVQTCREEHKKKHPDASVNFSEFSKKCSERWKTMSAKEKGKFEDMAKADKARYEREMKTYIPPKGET

[2] = target: HMGB1 B box (amino acids 91-169 of the HMGB1 sequence) (human); assay: ELISA, coated B box peptide
[3] = target: T1, HMGB1 A box (amino acids 9-85 of the HMGB1 sequence) (human); assay: ELISA, coated A box peptide at 5 µg/ml
[4] = target: HMGB1 B box (amino acids 91-169 of the HMGB1 sequence) (human); assay: ELISA, coated B box peptide at 5 µg/ml
[5] = target: recombinant rat HMGB1 (SEQ ID NO:12) (rat) (UniProt P63159); assay: ELISA, coated recombinant rat HMGB1, anti-human IgG-HRP
[6] = target: recombinant rat HMGB1 (SEQ ID NO:12) (rat) (UniProt P63159); assay: ELISA, coated recombinant rat HMGB1 at 3 µg/ml, anti-human IgG-HRP
[7] = target: T1, HMGB1 A box (amino acids 9-85 of the HMGB1 sequence) (human); assay: ELISA on coated HMGB1 A box peptide (5 ug/ml), bound RAGE-Ig detected with anti-human IgG-HRP, absorbance 655 nm
[8] = target: HMGB1 B box (amino acids 91-169 of the HMGB1 sequence) (human); assay: ELISA on coated HMGB1 B box peptide (5 ug/ml), bound RAGE-Ig detected with anti-human IgG-HRP, absorbance 655 nm
[9] = target: recombinant rat HMGB1 (SEQ ID NO:12) (rat) (UniProt P63159); assay: ELISA on coated recombinant rat HMGB1 (3 ug/ml), bound RAGE-Ig detected with anti-human IgG-HRP, absorbance 655 nm
[10] = target: RAGE-Ig fusion protein (SEQ ID NO:6) (human); assay: capture assay: plate coated with RAGE-Ig (5 ug/ml), lysate of freeze-thawed mouse fibroblasts added, detected with mouse anti-HMGB1 mAb 10D4
[11] = target: RAGE-Ig fusion protein (SEQ ID NO:6) (human); assay: capture assay: plate coated with RAGE-Ig (5 ug/ml), recombinant HMGB1 added, detected with mouse anti-HMGB1 mAb 10D4, Meso Scale Discovery reader
[12] = target: RAGE-Ig fusion protein (SEQ ID NO:6) (human); assay: competition ELISA, competitor against coated HMGB1 for RAGE-Ig
[13] = target: RAGE-Ig fusion protein (SEQ ID NO:6) (human); assay: competition ELISA, competitor at 10 µM, RAGE-Ig at 25 nM, coated rat HMGB1
[14] = target: RAGE-Ig fusion protein (SEQ ID NO:6) (human); assay: competition ELISA: 25 nM RAGE-Ig preincubated with 10 uM competitor, then on coated recombinant rat HMGB1; bound RAGE-Ig detected with anti-human IgG-HRP, OD 650 nm

Measured: binding

commercially-available recombinant human RAGE/Fc chimera (R&D Systems, Inc., Catalog No. 1145-RG) (from UniProt Q15109 23-344) (Fc fusion)
not listed: [10] | [11] | [12] | [13] | [14]
binds: all other assays above

native HMGB1 in lysates of freeze-thawed wildtype mouse fibroblasts (from UniProt P63158 1-215) (ligand)
binds: [10]

recombinant HMGB1 (Example 15, FIG. 16A) (from UniProt P63159 1-215) (ligand)
binds: [11]

recombinant rat HMGB1 (SEQ ID NO:12) (from UniProt P63159 1-215) (ligand)
binds: [12] | [13] | [14]
